Measurements from publication PMC7216731.
These are yes or no findings as the source states them, for the method shown. Some results given as binding are weak or reduced against the parent protein; the word gives no strength.

Protein sequences, listed by entry. Tags and fused reporters are not part of them. Residues count along the entry.
UniProt P13128, residues 25-529: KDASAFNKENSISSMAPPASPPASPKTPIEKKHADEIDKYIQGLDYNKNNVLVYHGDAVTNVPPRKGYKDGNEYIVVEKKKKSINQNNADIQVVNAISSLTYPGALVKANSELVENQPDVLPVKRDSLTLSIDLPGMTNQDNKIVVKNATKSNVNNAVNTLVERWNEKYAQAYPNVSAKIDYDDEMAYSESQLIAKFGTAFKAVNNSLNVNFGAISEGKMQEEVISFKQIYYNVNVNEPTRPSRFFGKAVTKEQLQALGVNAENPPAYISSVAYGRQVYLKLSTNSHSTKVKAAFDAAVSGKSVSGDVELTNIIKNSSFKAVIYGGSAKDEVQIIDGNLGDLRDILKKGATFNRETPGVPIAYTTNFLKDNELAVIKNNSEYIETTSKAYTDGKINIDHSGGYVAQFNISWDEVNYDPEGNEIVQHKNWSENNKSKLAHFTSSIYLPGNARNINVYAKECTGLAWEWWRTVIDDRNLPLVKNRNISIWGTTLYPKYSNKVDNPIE

Biological target: Listeriolysin O (Listeria monocytogenes) (UniProt P13128)
Experiment: oligomer bands on SDS-PAGE without reducing agent, Western blot with anti-LLO; purified LLO in acidic PBS (pH 5.5), oligomerization induced with potassium chloride (high salt), sheep erythrocytes added, 5 min on ice, boiled in loading buffer lacking 2-hydroxy-1-ethanethiol; with or without morin (64 ug/mL), which decreased the oligomers; both purified

Listeriolysin O (from UniProt P13128 25-529)
binding: binds
